Data as given in paper PMC3990521.

Chains of the proteins cited; added tags and fusions are not shown. Lines headed by an entry give the natural chain unless they say otherwise; changes in a name come on top.
UniProt Q03468: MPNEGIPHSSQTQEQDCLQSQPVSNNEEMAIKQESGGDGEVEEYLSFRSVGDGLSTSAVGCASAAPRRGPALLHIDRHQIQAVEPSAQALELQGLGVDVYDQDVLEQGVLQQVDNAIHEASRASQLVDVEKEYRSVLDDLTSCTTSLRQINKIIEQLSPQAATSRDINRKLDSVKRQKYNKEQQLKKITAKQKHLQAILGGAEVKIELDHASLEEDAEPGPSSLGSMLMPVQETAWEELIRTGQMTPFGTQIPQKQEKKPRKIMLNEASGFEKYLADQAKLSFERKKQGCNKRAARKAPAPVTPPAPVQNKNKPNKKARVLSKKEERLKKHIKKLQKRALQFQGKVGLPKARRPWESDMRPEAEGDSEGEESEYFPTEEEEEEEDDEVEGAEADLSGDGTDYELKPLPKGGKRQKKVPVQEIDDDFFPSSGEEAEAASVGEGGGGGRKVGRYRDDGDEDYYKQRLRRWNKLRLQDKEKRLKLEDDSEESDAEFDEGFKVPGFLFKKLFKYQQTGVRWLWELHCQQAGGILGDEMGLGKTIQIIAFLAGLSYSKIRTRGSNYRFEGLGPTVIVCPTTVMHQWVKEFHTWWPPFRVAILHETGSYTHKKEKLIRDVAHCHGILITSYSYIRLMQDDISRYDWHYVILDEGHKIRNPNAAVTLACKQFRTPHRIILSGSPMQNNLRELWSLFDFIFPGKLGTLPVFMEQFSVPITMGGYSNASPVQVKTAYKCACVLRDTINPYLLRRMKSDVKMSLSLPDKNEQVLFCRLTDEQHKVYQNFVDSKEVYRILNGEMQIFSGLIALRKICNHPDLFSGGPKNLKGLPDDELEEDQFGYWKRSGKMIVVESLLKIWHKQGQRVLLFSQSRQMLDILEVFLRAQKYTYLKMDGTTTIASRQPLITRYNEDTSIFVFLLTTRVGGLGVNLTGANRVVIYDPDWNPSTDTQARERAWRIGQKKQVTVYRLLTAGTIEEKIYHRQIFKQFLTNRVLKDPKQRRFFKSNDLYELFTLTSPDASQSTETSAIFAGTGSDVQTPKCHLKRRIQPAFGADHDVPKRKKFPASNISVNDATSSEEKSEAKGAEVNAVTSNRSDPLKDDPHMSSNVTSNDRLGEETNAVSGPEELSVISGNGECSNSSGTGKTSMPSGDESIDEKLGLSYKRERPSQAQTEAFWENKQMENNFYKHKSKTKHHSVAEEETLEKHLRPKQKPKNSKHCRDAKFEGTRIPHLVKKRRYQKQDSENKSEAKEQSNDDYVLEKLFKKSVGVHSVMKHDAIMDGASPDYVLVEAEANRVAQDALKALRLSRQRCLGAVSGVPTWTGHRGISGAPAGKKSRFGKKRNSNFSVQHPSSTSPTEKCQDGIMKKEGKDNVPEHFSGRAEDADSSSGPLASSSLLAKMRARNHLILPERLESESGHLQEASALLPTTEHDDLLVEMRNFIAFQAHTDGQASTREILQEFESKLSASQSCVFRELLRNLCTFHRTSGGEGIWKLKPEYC
UniProt P05412: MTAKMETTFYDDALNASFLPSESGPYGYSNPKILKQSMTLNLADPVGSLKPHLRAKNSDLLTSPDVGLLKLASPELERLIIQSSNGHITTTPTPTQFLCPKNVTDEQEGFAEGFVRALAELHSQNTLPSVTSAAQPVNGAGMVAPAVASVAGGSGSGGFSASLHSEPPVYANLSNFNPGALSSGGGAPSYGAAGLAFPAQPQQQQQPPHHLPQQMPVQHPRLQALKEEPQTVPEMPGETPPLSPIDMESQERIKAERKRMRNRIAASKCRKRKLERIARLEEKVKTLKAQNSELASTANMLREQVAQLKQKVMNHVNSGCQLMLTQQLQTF

Target: CSBΔN1 (human) (UniProt Q03468)
Experiment: ChIP-western; cells pre-extracted in Buffer B (150 mM NaCl, 0.5% Triton X-100) to remove soluble CSB and c-Jun, pellet fixed with 1% formaldehyde 10 min, sonicated; chromatin immunoprecipitated with monoclonal anti-CSB antibody 1B1, cross-links reversed, western blot for c-Jun

Question: How did the binding turn out when c-Jun (from UniProt P05412 1-331) was run?
Answer: binds

No constants are given. Whether binding was seen depends on the method and setting. Binding can be weak; no strength is given.
